Experimental data as given in PubChem BioAssay AID540276 (National Center for Advancing Translational Sciences (NCATS), 2011).
Values joined by “and” are separate entries in the source; they are usually repeats but may differ in a detail not shown here. Equal values may be shown once. The campaign covered roughly 300,000 compounds. About 5,400 (1.8%) were called active. Inconclusive results, whose numbers are uncertain, are shown with a selection of clear calls. Calls follow the shape of the full dose curve; tested in HEK293 cells. Potencies beside an inconclusive call are fits to weak or partial responses and may not hold up.
Potency is read from the fitted curve at half-maximal effect.

Assay: qHTS for inhibitors of binding or entry into cells for Marburg Virus
Conditions: Marburg virus pseudotyped entry inhibition, cell reporter; series mostly up to 37.8 µM
In the case of `Cc1ccc(NC(=S)N(CCCN2CCOCC2)Cc2cccs2)c(C)c1`, the Potency is reported as inconclusive: 1.26 µM [inhibitor, single point]. For `CCOc1ccc(NC(=O)C(C)Sc2nnc3cc(C)c4ccccc4n23)cc1` (stereo not given), the Potency was “inactive”. In the case of `Cc1nc2c(-c3ccccc3)c(C)nn2c(C)c1CCC(=O)NCc1cccc(Cl)c1`, the Potency is reported as “inactive”. With `Cc1nnc(NC(=O)c2nc(S(=O)(=O)Cc3ccccc3)ncc2Cl)s1` the Potency was inconclusive: 14.1 µM [inhibitor, partial curve, poor fit] and inconclusive: 22.4 µM [inhibitor, single point]. For `COC(=O)c1cccc(NC(=O)Cc2coc3cc(OC)ccc23)c1`, the Potency was inconclusive: 1.64 µM [inhibitor, partial curve, poor fit]. With `CCN(CC)CCNC(=O)c1ccc(NC(=O)c2c(C)nn(-c3ccc(F)cc3)c2Cl)cc1` the Potency was inconclusive: 14.1 µM [inhibitor, partial curve, poor fit]. With `CCOC(=O)c1ccccc1Nc1cn(C(C)=O)c2ccccc12` the Potency was “inactive”. With `Cc1ccc(S(=O)(=O)c2cc3c(=O)n4cccc(C)c4nc3n(C3CCCCC3)c2=N)cc1` the Potency was “inactive”. In the case of `Cc1coc(C)c1C(=O)CC1(O)C(=O)N(CCc2ccccc2)c2ccccc21` (stereo not given), the Potency is reported as inconclusive: 13 µM [inhibitor, partial curve, poor fit]. With `CCOC(=O)Cc1cc(=O)n2[nH]cc(-c3ccc(Cl)cc3)c2n1` the Potency was inconclusive: 35.5 µM [activator, partial curve, poor fit]. With `CCCNC(=O)c1nn2cc(Br)cnc2c1Cl` the Potency was inconclusive: 5.62 µM [inhibitor, single point]. In the case of `N#C/C(=C\c1ccc(-c2cccc([N+](=O)[O-])c2)o1)C(=O)NCCN1CCOCC1`, the Potency is reported as inconclusive: 2.24 µM [inhibitor, partial curve, poor fit]. With `COc1ccc(C(=O)NCC(c2ccco2)N2CCc3ccccc32)cc1` (stereo not given) the Potency was inconclusive: 3.55 µM [inhibitor, partial curve, poor fit]. In the case of `CCOC(=O)c1ccc(NC(=O)c2oc3ccc4c(c3c2C)C(=O)CC(C)(CC)O4)cc1` (stereo not given), the Potency is reported as inconclusive: 0.562 µM [activator, full curve, poor fit]. In the case of `CCOC(=O)c1c(C)n(Cc2ccccc2)c2ccc(OCC(O)CN3C(=O)CNC3=O)cc12` (stereo not given), the Potency is reported as “inactive”. For `Cn1c(=O)n(C)c2cc([N+](=O)[O-])c(N3CCN(C(=O)c4ccccc4)CC3)cc21`, the Potency was inconclusive: 4.11 µM [inhibitor, partial curve]. For `COCc1cc(C2SCC(=O)Nc3c2c(=O)[nH]n3C(C)C)ccc1OC` (stereo not given), the Potency was “inactive”. With `COc1ccc(NS(=O)(=O)c2cc(NC(=O)c3cccs3)ccc2N2CCCC2)cc1` the Potency was inconclusive: 10 µM [inhibitor, partial curve, poor fit]. With `Cn1cnc([N+](=O)[O-])c1Sc1ccc(Br)cc1` the Potency was inconclusive: 16.4 µM [inhibitor, single point]. In the case of `CC=CC1=Cc2ccccc2C(C(C(=O)OC)C(=O)OC)N1C(=O)OC` (stereo not given), the Potency is reported as inconclusive: 1.33 µM [inhibitor, partial curve, poor fit]. With `O=C(CC1C(=O)NCCN1Cc1ccccc1C(F)(F)F)NC1CCCC1` (stereo not given) the Potency was “inactive”. With `CN(C)S(=O)(=O)c1cccc(C(=O)NCC(C)(C)CNC(=O)c2cccc(S(=O)(=O)N(C)C)c2)c1` the Potency was inconclusive: 3.16 µM [inhibitor, single point]. For `O=C(Nc1ccccc1-c1nnc(SCc2ccc(Cl)cc2)o1)c1ccccc1`, the Potency was inconclusive: 29.1 µM [inhibitor, single point]. In the case of `CCOc1ccc(NC(=O)CSc2ncc(S(=O)(=O)c3ccc(F)c(C)c3)c(=O)[nH]2)cc1`, the Potency is reported as “inactive”. In the case of `O=C(COc1ccc(F)cc1Br)NCC1(N2CCCCC2)CCCCC1`, the Potency is reported as inconclusive: 14.1 µM [inhibitor, single point]. In the case of `S=c1[nH]nc(-c2ccco2)n1/N=C/C(Cl)=C/c1ccccc1`, the Potency is reported as inconclusive: 35.5 µM [inhibitor, partial curve, poor fit]. In the case of `CCCCN(CC)CCNC(=S)Nc1ccc2nc(N3CCN(C)CC3)cc(C)c2c1`, the Potency is reported as active: 3.55 µM. With `Brc1ccc(-c2csc3ncnc(-n4nnc5ccccc54)c23)cc1` the Potency was active: 12.6 µM. With `O=C(CN1C(=O)C2CC=CCC2C1=O)NCC(=O)Nc1ccc(F)c(F)c1F` (stereo not given) the Potency was inconclusive: 7.08 µM [activator, partial curve]. For `COc1ccc(Cn2c(SCc3ccc(C(=O)NC4CCCCC4)cc3)nc3ccncc32)cc1`, the Potency was inconclusive: 17.8 µM [inhibitor, single point]. For `COc1ccc(NC(=O)C23CC4CC(C2)CC(n2cnc(Br)n2)(C4)C3)cc1Cl`, the Potency was “inactive”. With `O=C(CC(C(=O)O)c1ccc(Cl)cc1)c1ccc(Br)cc1` (stereo not given) the Potency was inconclusive: 35.5 µM [activator, single point]. For `COc1ccc(-c2cc(C(=O)N/N=C/c3cccnc3)c3cc(C)cc(C)c3n2)cc1`, the Potency was inconclusive: 8.91 µM [inhibitor, partial curve, poor fit]. For `O=C1c2[nH]nc(-c3ccccc3O)c2C(c2cccc(OCc3ccccc3)c2)N1CCCO` (stereo not given), the Potency was inconclusive: 0.562 µM [inhibitor, full curve, poor fit]. With `CSc1ccc(CN2CCN(C(=O)c3ccc([N+](=O)[O-])cc3)CC2)cc1` the Potency was inconclusive: 7.94 µM [inhibitor, partial curve]. In the case of `O=C(Nc1cc2c(cc1Br)OCCO2)c1cccs1`, the Potency is reported as inconclusive: 3.98 µM [activator, single point]. With `N#Cc1nc(-c2ccc(COc3ccc(Cl)cc3)o2)oc1N1CCCCC1` the Potency was “inactive”. With `CC(NC(=O)CSc1n[nH]c(=O)n1C1CC1)C12CC3CC(CC(C3)C1)C2` (stereo not given) the Potency was inconclusive: 4.11 µM [inhibitor, full curve, poor fit]. With `NS(=O)(=O)c1ccc(Cc2ncc(C(F)(F)F)cc2Cl)s1` the Potency was inconclusive: 25.1 µM [inhibitor, single point]. In the case of `CC1(CNC(=O)C(=O)NCC2(C)CO2)CO1` (stereo not given), the Potency is reported as inconclusive: 15.8 µM [inhibitor, single point].
